Test results from article PMC10193302.
Results are given in words; binding and its absence hold for the method and conditions named. In cells and extracts the contact can be indirect. Some results given as binding are weak or reduced against the parent protein; the word gives no strength. For some assays here: Tags and fused reporters may be left off the sequences shown.

The chains behind the UniProt entries cited, without tags or fusion partners.
UniProt P48432: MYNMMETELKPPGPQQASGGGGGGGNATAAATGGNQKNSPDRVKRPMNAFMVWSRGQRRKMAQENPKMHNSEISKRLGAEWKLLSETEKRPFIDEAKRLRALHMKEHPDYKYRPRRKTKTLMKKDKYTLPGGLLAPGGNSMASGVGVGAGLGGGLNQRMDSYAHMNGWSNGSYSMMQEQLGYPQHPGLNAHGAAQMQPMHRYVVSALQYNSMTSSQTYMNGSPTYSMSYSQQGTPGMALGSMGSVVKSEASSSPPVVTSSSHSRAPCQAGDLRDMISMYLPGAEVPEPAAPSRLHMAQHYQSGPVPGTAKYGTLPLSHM

T1: transducin (beta)-like 1 X-linked (mouse (endogenous in TSCs)) (UniProt Q9QXE7)
T1 sequence: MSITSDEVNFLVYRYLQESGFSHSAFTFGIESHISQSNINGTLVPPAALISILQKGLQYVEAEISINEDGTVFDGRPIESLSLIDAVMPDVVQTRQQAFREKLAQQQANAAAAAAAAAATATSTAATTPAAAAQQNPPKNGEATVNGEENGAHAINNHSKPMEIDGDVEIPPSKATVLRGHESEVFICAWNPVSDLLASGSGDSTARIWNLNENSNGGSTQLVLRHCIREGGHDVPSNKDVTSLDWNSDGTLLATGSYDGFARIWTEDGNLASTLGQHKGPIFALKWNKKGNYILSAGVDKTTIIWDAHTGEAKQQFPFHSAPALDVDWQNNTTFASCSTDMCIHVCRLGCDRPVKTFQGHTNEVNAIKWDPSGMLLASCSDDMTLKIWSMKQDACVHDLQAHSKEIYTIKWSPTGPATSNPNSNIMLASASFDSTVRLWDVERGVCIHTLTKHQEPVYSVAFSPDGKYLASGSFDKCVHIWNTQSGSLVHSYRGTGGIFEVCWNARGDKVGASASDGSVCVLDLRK

B1: Erf tagged with V5 at the endogenous locus (protein, UniProt P70459 1-551)
chain: MKTPADTGFAFPDWAYKPESSPGSRQIQLWHFILELLRKEEYQGVIAWQGDYGEFVIKDPDEVARLWGVRKCKPQMNYDKLSRALRYYYNKRILHKTKGKRFTYKFNFNKLVLVNYPFIDMGLAGGAVPQSAPPVPSGGSHFRFPPSTPSEVLSPTEDPRSPPACSSSSSSLFSAVVARRLGRGSVSDCSDGTSELEEPLGEDPRARPPGPPELGAFRGPPLARLPHDPGVFRVYPRPRGGPEPLSPFPVSPLAGPGSLLPPQLSPALPMTPTHLAYTPSPTLSPMYPSGGGGPSGSGGGSHFSFSPEDMKRYLQAHTQSVYNYHLSPRAFLHYPGLVVPQPQRPDKCPLPPMAPETPPVPSSASSSSSSSSSPFKFKLQPPPLGRRQRAAGEKAPGGTDKSSGGSGSGGLAEGAGAVAPPPPPPQIKVEPISEGESEEVEVTDISDEDEEDGEVFKTPRAPPAPPKPEPGEAPGVAQCMPLKLRFKRRWSEDCRLEGGGCLSGGPEDEGEDKKVRGDVGPGESGGPLTPRRVSSDLQHATAQLSLEHRDS

Tests used:
[1] = biological target: T1, transducin (beta)-like 1 X-linked (mouse (endogenous in TSCs)); test: co-IP; self-renewing (SR) TSCs; Supplementary Fig. 7b; the bait is not given, the co-IP methods list anti-Tbl1x for precipitation and anti-Sox2 for the blot
[2] = biological target: T1, transducin (beta)-like 1 X-linked (mouse (endogenous in TSCs)); test: co-IP; endogenous Tbl1x precipitated with anti-Tbl1x and protein G Dynabeads from TSC lysate in Hunt buffer (20 mM Tris-HCl pH 8, 100 mM NaCl, 1 mM EDTA, 0.5% NP-40), overnight at 4 C; Western blot; IgG as negative control

| Molecule | binding [1] | binding [2] |
| --- | --- | --- |
| Sox2 (from UniProt P48432 1-319) | no binding | – |
| B1 | – | binds |
